Tags and fusion partners may be left off the protein sequences shown.
System: T1, Ms6 integrase (Int) (Mycobacterium phage Ms6)
T1 sequence: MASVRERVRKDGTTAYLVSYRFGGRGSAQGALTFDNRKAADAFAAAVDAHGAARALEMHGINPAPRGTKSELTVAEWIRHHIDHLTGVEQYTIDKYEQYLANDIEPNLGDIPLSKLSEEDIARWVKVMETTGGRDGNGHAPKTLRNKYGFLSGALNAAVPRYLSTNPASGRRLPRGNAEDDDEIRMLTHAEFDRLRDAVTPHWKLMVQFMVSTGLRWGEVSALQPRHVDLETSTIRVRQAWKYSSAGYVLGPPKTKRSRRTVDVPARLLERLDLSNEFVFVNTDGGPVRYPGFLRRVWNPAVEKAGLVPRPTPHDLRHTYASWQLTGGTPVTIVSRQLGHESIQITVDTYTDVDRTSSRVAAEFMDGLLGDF
Test: activity in cells
Details: Southern blot of pAV1 integration at attB in M. smegmatis; protein in cells

## GGTAGCGCACCACACTGGCAGTGTGGGGGTCAGGGGTTCGAATCCCCTTAGCTCCACTCCTCAGATACCCGCTCCGGC (double strand) [M. smegmatis attB (tRNA-Ala 3' end)]
  activity on this sequence: active
